Results as given in publication PMC9834401.
These are yes or no findings as the source states them, for the method shown. Binding seen in cells or lysates may run through a third protein. Some entries that bind do so weakly or less than the wild type. Tags and fused reporters may be left off the sequences shown.

How the values were obtained:
GFP-LGN [1] = biological target: T1, GFP-LGN (UniProt P81274); experiment: proximity ligation; Duolink PLA with GFP and ANXA1 primary antibodies in fixed GFP-LGN-expressing MCF-10A cells; interphase and metaphase cells
T1 sequence: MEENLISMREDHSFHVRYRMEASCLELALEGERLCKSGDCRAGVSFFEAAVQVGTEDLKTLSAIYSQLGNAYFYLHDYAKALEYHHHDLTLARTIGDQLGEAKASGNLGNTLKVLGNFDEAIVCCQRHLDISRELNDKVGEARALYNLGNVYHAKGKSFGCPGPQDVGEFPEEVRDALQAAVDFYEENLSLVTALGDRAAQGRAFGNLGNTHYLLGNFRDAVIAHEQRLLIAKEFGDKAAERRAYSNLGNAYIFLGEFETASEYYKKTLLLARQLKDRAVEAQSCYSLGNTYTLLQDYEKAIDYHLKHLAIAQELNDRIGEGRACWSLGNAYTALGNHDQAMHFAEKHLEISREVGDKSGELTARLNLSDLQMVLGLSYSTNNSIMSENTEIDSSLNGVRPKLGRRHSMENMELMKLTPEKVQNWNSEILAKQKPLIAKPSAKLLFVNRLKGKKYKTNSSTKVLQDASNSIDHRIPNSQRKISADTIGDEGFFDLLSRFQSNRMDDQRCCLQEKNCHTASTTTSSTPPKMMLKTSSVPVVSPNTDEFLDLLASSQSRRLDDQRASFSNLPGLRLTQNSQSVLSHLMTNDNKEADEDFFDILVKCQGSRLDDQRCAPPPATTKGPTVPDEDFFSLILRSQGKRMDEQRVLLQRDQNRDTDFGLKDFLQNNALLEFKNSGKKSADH

GFP-LGN [2] = biological target: T1, GFP-LGN; experiment: co-IP; GFP-Trap beads on lysates of MCF-10A cells stably expressing GFP-LGN, arrested in metaphase; western blotting of the immunoprecipitates

binding (GFP-LGN [1]): binds
binding (GFP-LGN [2]): binds
B1: Annexin A1 (ANXA1) (protein, UniProt P04083 1-346)
chain: MAMVSEFLKQAWFIENEEQEYVQTVKSSKGGPGSAVSPYPTFNPSSDVAALHKAIMVKGVDEATIIDILTKRNNAQRQQIKAAYLQETGKPLDETLKKALTGHLEEVVLALLKTPAQFDADELRAAMKGLGTDEDTLIEILASRTNKEIRDINRVYREELKRDLAKDITSDTSGDFRNALLSLAKGDRSEDFGVNEDLADSDARALYEAGERRKGTDVNVFNTILTTRSYPQLRRVFQKYTKYSKHDMNKVLDLELKGDIEKCLTAIVKCATSKPAFFAEKLHQAMKGVGTRHKALIRIMVSRSEIDMNDIKAFYQKMYGISLCQAILDETKGDYEKILVALCGGN
